Measurements reported in PubChem BioAssay AID1259308 (NCATS, 2017)
Here is a random part of about 59,000 reagents tested. Of all reagents, about 1,510 (2.6%) got an active call. 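Calls use total luciferase alone and ignore viability, so some active siRNAs may act by altering cell number.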 Unmarked entries are inactive. The numbers tell different reagents against one gene apart. Further read-outs or replicates are left out here.

Test: 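Genes whose loss raises luciferase production in HEK293 cells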 (primary screen)
Cells: human HEK293 embryonic kidney cells stably expressing firefly luciferase (HEK-CMV-Luc2-Hygro)
Reagents: single siRNA against human genes, 0.8 pmol siRNA per well
Timing: 72 h
Measurement: 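Luciferase light (ONE-Glo) measured on one replicate plate set and viability (CellTiter-Glo) on the other, scaled to a negative control siRNA, with robust z-scores and luciferase per cell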
Direction: total luciferase, z-score and total luciferase, % of control: higher = more reporter protein produced; luciferase per cell, z-score: higher = more reporter output per viable cell
Call rule: 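Active when the median/MAD z-score for overall luciferase is greater than 3; a gene was taken forward for validation with new siRNAs if at least two of its three siRNAs passed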
Calls: active = raised luciferase; inactive = no rise

Gene	siRNA no.	total luciferase, z-score	total luciferase, % of control	luciferase per cell, z-score
TMBIM1	1	-1.92	43.7	-1.86
TMBIM1	2	0.51	92	0.933
TMBIM1	3	1.09	104	1.38
NUAK1	1	0.129	84.5	-0.516
NUAK1	2	0.0399	82.7	0.188
NUAK1	3	-1.35	55.1	-1.63
EFR3A	1	1.06	103	0.384
EFR3A	2	1.09	103	1.1
EFR3A	3	2.12	124	2.36
LTBP2	1	-0.35	74.9	-0.15
LTBP2	2	-0.729	67.4	-0.404
LTBP2	3	-0.712	67.7	-0.99
CCDC9B	1	-0.887	64.2	0.391
CCDC9B	2	-0.874	64.5	-1.4
CCDC9B	3	-3.33	15.7	-3.28
GCN1	1	-1.19	58.2	-1.57
GCN1	2	0.309	88	1.45
GCN1	3	-0.65	69	-0.763
MMP11	1	0.132	84.5	0.279
MMP11	2	-0.207	77.8	-0.715
MMP11	3	-1.54	51.3	-1.9
TM9SF2	1	-1.02	61.6	-1.61
TM9SF2	2	0.826	98.3	1.04
TM9SF2	3	0.0457	82.8	0.303
LINC00520	1	-0.711	67.7	0.496
LINC00520	2	-0.568	70.6	0.684
LINC00520	3	0.421	90.3	0.187
SLAMF9	1	-1.85	45.1	-1.1
SLAMF9	2	-0.817	65.6	-1.25
SLAMF9	3	0.42	90.2	1.23
DLAT	1	-0.403	73.9	-0.619
DLAT	2	0.612	94.1	0.704
DLAT	3	0.265	87.2	-0.383
TMCO5A	1	-1.01	61.7	-0.418
TMCO5A	2	-0.918	63.6	-1.41
TMCO5A	3	0.907	99.9	0.134
ZNF32	1	-0.0318	81.3	0.305
ZNF32	2	-0.481	72.3	-0.265
ZNF32	3	-2.75	27.3	-1.02
RABL2A	1	-0.593	70.1	0.357
RABL2A	2	0.668	95.2	0.644
RABL2A	3	2.78	137	2.2
SYT13	1	1.42	110	1.46
SYT13	2	-1.56	50.9	-1.79
SYT13	3	0.327	88.4	0.248

Single entries from the list.
For “luciferase per cell, z-score”, TMBIM1 #2 shows 0.933
Under “total luciferase, % of control”, ZNF32 #3 has 27.3
Under “total luciferase, z-score”, GCN1 #2 has 0.309
EFR3A #2, luciferase per cell, z-score → 1.1
SYT13 #3, total luciferase, z-score → 0.327

Further records follow:
Gene	siRNA no.	total luciferase, z-score	total luciferase, % of control	luciferase per cell, z-score
CD47	1	-0.0477	80.9	-0.164
CD47	2	3.9 (active)	159	2.72
CD47	3	-1.1	60.1	-1.32
CIZ1	1	-0.0262	81.4	1.21
CIZ1	2	0.634	94.5	1.81
CIZ1	3	-0.301	75.9	0.668
STS	1	0.348	88.8	0.85
STS	2	1.08	103	0.704
STS	3	-0.0649	80.6	-1.01
TXNDC8	1	-0.605	69.8	-0.847
TXNDC8	2	-0.00347	81.8	-0.305
TXNDC8	3	-0.535	71.3	0.217
CR1	1	0.649	94.8	-0.0421
CR1	2	-0.849	65	-0.897
CR1	3	1.23	106	0.66
CDK8	1	-0.799	66	-0.325
CDK8	2	-0.64	69.2	-0.366
CDK8	3	-1.95	43.2	-0.129
BBX	1	2.09	124	1.32
BBX	2	-0.295	76	-0.134
BBX	3	-0.277	76.4	0.705
RGS9BP	1	0.312	88.1	1.65
RGS9BP	2	0.423	90.3	0.428
RGS9BP	3	-1.53	51.4	-0.73
CETP	1	-0.129	79.3	0.0795
CETP	2	0.602	93.9	-0.112
CETP	3	-1.41	53.9	-1.71
ILDR1	1	-0.364	74.6	0.278
ILDR1	2	-0.236	77.2	-0.288
ILDR1	3	-0.685	68.3	-0.365
